# Test results from the supplement of paper PMC10849652.
# Sequences of proteins named here, by UniProt entry; tags and fusion partners are left off. A change or cut given only in a name is not applied to a line headed by its entry.
# UniProt Q9BYC5: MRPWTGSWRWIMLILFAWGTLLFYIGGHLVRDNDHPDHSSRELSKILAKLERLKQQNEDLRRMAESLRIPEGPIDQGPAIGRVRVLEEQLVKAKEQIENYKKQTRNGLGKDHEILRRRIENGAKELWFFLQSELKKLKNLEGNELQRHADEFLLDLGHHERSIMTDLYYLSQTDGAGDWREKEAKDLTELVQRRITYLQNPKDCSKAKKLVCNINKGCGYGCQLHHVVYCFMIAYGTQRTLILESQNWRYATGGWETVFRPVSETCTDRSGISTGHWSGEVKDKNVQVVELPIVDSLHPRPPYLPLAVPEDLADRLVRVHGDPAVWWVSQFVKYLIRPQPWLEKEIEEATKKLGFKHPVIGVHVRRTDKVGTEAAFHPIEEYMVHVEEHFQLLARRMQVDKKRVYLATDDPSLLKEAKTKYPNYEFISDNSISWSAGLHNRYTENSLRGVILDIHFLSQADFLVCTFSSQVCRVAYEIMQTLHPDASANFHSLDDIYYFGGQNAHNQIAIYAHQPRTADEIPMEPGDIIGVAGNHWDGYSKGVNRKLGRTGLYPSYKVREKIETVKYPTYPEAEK
# UniProt P04062: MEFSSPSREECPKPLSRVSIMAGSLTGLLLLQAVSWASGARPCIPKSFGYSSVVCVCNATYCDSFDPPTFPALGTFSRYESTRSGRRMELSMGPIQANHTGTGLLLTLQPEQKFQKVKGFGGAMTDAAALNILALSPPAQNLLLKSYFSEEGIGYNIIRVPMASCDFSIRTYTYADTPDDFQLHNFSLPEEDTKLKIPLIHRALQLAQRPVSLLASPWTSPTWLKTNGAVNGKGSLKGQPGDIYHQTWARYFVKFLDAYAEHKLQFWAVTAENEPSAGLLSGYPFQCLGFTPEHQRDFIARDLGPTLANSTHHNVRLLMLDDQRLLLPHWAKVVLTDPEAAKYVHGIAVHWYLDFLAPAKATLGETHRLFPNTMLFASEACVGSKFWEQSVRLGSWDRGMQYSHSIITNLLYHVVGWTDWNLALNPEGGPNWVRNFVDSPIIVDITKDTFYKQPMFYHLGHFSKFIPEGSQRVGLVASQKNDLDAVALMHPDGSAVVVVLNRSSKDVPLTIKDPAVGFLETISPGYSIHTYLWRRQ
# UniProt Q9UET6: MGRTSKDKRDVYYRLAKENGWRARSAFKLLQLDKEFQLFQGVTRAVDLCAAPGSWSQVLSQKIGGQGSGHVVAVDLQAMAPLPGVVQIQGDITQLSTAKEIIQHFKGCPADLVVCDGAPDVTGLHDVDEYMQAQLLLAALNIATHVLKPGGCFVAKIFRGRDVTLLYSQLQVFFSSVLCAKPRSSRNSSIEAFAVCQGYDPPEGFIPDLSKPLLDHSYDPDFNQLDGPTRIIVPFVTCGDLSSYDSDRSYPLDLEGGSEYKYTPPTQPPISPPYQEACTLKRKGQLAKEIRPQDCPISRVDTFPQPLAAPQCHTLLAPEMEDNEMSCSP
# UniProt P30047: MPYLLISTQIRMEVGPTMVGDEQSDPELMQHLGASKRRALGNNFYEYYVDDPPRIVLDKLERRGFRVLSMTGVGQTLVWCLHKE
# UniProt Q9H3C7, whole entry, looked up: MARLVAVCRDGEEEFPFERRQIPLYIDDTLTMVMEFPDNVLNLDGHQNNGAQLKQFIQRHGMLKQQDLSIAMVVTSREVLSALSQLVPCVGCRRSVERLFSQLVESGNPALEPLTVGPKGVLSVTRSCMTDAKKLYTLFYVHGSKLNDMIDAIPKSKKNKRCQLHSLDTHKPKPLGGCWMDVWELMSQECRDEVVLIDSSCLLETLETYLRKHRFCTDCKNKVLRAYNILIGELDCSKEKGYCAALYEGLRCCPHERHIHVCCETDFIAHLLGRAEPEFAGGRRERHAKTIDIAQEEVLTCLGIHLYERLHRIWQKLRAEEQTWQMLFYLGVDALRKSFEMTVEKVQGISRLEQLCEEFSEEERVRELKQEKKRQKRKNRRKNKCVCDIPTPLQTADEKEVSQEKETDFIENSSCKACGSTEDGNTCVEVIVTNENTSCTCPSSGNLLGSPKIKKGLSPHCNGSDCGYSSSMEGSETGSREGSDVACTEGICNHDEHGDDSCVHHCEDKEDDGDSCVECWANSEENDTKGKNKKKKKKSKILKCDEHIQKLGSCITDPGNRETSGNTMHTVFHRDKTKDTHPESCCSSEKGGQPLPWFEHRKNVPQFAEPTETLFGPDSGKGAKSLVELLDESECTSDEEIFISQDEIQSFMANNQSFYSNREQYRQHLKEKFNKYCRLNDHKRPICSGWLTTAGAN
# UniProt Q96I24: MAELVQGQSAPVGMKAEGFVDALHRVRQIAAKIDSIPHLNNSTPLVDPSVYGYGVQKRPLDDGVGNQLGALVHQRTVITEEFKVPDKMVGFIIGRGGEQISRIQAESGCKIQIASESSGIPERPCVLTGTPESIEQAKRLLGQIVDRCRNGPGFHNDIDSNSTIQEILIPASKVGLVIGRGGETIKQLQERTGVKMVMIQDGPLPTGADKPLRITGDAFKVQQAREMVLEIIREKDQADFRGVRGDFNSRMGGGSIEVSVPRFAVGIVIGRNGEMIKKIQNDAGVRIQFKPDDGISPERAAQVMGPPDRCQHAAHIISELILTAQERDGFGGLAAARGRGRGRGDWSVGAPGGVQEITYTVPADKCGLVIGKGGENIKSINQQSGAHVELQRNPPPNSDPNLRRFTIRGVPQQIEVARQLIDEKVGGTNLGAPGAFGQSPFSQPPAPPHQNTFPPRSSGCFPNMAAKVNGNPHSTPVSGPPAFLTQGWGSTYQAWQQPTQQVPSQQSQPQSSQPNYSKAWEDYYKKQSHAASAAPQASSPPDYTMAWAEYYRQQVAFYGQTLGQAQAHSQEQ
# UniProt Q06546: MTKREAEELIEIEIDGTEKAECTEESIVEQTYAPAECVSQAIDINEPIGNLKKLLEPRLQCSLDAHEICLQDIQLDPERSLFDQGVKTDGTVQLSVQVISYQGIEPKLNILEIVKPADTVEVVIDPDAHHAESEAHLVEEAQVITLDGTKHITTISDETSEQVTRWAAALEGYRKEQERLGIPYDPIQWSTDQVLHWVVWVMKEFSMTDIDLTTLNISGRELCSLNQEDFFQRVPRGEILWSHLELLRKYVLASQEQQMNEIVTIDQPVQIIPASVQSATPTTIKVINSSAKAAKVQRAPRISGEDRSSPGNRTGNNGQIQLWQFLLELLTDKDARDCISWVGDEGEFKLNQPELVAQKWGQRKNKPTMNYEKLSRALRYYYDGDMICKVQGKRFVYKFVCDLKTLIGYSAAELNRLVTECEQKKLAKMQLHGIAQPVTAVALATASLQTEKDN
# UniProt Q8N4A0: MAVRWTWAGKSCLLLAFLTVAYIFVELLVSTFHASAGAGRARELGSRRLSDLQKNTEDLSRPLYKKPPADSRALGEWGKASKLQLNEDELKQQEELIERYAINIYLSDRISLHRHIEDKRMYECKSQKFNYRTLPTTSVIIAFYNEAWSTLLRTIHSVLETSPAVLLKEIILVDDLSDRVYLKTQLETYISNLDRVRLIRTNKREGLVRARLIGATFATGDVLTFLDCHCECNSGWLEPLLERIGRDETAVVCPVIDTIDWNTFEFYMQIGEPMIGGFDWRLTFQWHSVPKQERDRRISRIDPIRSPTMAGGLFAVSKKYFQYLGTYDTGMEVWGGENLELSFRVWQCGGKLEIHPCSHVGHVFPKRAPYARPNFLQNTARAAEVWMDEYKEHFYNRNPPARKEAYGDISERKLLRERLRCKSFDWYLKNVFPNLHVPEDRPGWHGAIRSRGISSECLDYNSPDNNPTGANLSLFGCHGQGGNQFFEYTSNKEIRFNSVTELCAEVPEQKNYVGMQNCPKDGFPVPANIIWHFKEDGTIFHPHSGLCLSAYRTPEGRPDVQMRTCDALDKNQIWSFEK
# UniProt O75223: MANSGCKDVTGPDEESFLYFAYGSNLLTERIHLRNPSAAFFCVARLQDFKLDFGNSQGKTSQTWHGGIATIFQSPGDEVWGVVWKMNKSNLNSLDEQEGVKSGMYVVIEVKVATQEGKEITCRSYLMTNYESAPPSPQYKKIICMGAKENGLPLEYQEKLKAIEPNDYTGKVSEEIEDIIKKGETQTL
# UniProt Q96AE4: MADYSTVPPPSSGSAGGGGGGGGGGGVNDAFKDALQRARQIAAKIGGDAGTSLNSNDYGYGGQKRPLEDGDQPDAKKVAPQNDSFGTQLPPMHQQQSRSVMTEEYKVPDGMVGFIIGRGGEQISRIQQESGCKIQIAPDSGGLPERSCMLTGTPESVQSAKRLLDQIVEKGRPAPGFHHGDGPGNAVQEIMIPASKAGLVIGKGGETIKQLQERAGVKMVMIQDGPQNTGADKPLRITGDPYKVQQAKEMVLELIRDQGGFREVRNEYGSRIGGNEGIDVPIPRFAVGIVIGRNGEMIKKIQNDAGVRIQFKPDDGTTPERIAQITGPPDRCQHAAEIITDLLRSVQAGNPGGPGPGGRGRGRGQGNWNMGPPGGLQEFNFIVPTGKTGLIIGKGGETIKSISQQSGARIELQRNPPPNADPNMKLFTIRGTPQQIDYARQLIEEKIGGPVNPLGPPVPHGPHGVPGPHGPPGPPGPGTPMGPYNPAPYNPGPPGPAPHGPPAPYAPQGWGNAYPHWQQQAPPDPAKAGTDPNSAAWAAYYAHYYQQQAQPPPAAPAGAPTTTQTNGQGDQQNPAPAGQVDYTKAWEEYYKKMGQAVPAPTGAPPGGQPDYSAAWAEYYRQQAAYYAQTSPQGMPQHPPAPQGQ
# UniProt Q96C23: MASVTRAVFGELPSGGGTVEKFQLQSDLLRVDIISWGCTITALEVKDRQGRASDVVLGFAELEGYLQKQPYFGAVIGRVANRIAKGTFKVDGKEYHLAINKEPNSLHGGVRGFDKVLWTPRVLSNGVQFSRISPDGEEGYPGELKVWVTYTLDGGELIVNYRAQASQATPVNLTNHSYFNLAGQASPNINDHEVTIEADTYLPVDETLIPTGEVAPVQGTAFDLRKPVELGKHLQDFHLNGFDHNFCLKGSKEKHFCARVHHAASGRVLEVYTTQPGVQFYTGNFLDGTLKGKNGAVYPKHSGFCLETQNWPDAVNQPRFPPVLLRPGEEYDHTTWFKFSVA
# UniProt Q6ZNA5: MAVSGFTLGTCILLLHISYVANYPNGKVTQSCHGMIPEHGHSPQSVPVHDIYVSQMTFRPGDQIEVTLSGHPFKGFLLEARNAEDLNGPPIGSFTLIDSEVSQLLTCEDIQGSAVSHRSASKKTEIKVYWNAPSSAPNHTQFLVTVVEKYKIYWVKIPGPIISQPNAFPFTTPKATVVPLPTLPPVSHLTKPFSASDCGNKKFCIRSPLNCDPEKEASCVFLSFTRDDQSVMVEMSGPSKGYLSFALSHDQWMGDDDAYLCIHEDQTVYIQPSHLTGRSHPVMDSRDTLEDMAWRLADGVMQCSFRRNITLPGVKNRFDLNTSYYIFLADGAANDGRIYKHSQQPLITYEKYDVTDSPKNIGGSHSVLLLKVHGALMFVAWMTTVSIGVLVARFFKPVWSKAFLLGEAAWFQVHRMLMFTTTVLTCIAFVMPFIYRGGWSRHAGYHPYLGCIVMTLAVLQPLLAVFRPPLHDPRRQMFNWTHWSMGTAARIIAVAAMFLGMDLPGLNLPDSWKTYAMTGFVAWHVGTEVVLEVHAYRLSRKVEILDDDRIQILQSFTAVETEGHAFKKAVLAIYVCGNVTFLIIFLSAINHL
# UniProt Q8NB37: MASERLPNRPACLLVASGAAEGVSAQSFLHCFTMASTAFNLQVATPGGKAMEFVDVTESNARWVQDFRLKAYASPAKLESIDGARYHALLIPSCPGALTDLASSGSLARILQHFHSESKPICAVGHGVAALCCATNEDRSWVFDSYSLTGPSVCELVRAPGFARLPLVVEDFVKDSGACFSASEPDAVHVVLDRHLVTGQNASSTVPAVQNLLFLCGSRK
# UniProt O43524: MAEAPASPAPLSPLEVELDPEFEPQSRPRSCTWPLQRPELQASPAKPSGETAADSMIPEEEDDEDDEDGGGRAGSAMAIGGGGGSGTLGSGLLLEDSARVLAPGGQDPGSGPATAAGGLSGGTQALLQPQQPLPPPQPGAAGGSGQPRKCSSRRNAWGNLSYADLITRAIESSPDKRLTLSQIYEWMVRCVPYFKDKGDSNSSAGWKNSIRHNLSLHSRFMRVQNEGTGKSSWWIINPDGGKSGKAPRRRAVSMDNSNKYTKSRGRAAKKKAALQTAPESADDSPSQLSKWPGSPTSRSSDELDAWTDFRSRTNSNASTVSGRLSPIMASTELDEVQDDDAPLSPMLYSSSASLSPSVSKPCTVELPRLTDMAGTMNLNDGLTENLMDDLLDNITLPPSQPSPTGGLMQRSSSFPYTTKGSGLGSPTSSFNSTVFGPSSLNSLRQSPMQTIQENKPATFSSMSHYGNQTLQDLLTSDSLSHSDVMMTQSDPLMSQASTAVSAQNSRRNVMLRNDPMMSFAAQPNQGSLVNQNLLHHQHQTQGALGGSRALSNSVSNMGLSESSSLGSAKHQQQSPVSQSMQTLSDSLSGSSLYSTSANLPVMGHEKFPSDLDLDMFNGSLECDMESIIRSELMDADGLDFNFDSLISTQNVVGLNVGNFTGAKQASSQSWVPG
# The list shows a part of the results.
# Tests used:
# Test in all cases: log2 fold change, soluble protein after heating vs DMSO (PISA); higher = thermal stabilisation; K562 cells, 10 uM, 30 min; active = over 0.2 and 3.5 SD of the protein, either way, in both replicates (recomputed)
# [1] = compound: NC(=O)Nc1cc(-c2cccc(F)c2)sc1C(=O)N[C@H]1CCCNC1
# How it was run: (§1)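 K562 cells at 2×10^6 cells/mL were exposed to 10 μM compound for 30 min, then aliquots were heated for 3 min across 48°C-58°C, pooled, and extracted in PBS containing 0.5% NP-40 at 4°C. The supernatant after 21,000xg for 90 min was taken as soluble protein and measured by TMTpro 16plex LC-MS/MS with channel sums equalised. Thermal stability is reported relative to control samples, with values from duplicates. Fold changes are given on a log2 scale.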
# [2] = compound: NC(=O)c1cnc(N[C@@H]2CCCC[C@@H]2N)nc1Nc1cccc(-n2nccn2)c1
# How it was run: as §1
# [3] = compound: NC1(c2ccc(-c3nc4ccn5c(=O)[nH]nc5c4cc3-c3ccccc3)cc2)CCC1
# How it was run: as §1
# [4] = compound: NCC(=O)Nc1ccc(-n2nc(C(F)(F)F)cc2-c2ccc3c(ccc4ccccc43)c2)cc1
# How it was run: as §1
# entinostat = compound: Nc1ccccc1NC(=O)c1ccc(CNC(=O)OCc2cccnc2)cc1 [entinostat]
# How it was run: as §1
# vorinostat = compound: O=C(CCCCCCC(=O)Nc1ccccc1)NO [vorinostat]
# How it was run: as §1
# citarinostat = compound: O=C(CCCCCCNC(=O)c1cnc(N(c2ccccc2)c2ccccc2Cl)nc1)NO [citarinostat]
# How it was run: as §1
# silmitasertib = compound: O=C(O)c1ccc2c(c1)nc(Nc1cccc(Cl)c1)c1ccncc12 [silmitasertib]
# How it was run: as §1
# [5] = compound: O=C1NC(=O)C(c2cnc3ccccn23)=C1c1cn2c3c(cc(F)cc13)CN(C(=O)N1CCCCC1)CC2
# How it was run: as §1
# [6] = compound: c1cc(OCCN2CCCCC2)cc(-c2n[nH]c3ccc(-c4nnc[nH]4)cc23)c1
# How it was run: as §1
Target,log2 fold change [1],log2 fold change [2],log2 fold change [3],log2 fold change [4],log2 fold change (entinostat),log2 fold change (vorinostat),log2 fold change (citarinostat),log2 fold change (silmitasertib),log2 fold change [5],log2 fold change [6]
FUT8 (UniProt Q9BYC5),inactive: -0.022,inactive: 0.094,inactive: -0.107,inactive: -0.014,inactive: 0.042,inactive: -0.001,inactive: 0.108,inactive: 0.013,inactive: -0.146,inactive: 0.027
FRA10AC1 isoform 3 (UniProt Q70Z53),inactive: -0.069,inactive: 0.114,inactive: -0.121,inactive: -0.077,inactive: 0.019,inactive: 0.065,inactive: 0.08,inactive: 0.129,inactive: -0.091,inactive: -0.232
GGA3 (UniProt Q9NZ52),inactive: -0.103,inactive: -0.025,inactive: 0.013,inactive: -0.152,inactive: -0.016,inactive: 0.014,inactive: 0.007,inactive: 0.058,inactive: 0.002,inactive: -0.105
GCFC2 (UniProt P16383),inactive: 0.07,inactive: 0.071,inactive: -0.045,inactive: 0.099,inactive: -0.002,inactive: 0.136,inactive: -0.004,inactive: 0.04,inactive: 0.017,inactive: -0.016
GBA (UniProt P04062),inactive: 0.061,inactive: -0.043,inactive: -0.105,inactive: 0.064,inactive: -0.016,inactive: -0.028,inactive: 0.115,inactive: 0.026,inactive: -0.034,inactive: 0.308
FXR1 (UniProt P51114),inactive: 0.03,inactive: 0.015,inactive: 0.273,inactive: -0.085,inactive: 0.025,inactive: 0.087,inactive: -0.033,inactive: 0.145,inactive: 0.291,inactive: -0.127
FURIN (UniProt P09958),inactive: 0.039,inactive: -0.02,inactive: -0.103,inactive: 0.14,inactive: -0.026,inactive: 0.001,inactive: 0.104,inactive: -0.018,inactive: -0.074,inactive: -0.036
FTSJ1 (UniProt Q9UET6),inactive: 0.016,inactive: -0.042,inactive: -0.099,inactive: 0.046,inactive: 0.013,inactive: 0.194,inactive: 0.017,inactive: -0.035,inactive: 0.008,inactive: 0.047
GALNT2 (UniProt Q10471),inactive: 0,inactive: -0.042,inactive: -0.125,inactive: 0.002,inactive: -0.018,inactive: 0.033,inactive: 0.064,inactive: -0.021,inactive: -0.034,inactive: 0.005
GCHFR (UniProt P30047),inactive: 0.107,inactive: -0.265,inactive: -0.007,inactive: -0.029,inactive: 0.014,inactive: -0.086,inactive: 0.156,inactive: -0.03,inactive: -0.023,inactive: 0.016
GGNBP2 (UniProt Q9H3C7),inactive: 0.03,inactive: 0.003,inactive: -0.073,inactive: 0.084,inactive: 0.061,inactive: 0.011,inactive: 0.155,inactive: 0.128,inactive: 0.04,inactive: -0.097
GCN1 (UniProt Q92616),inactive: 0.202,inactive: -0.001,inactive: 0.237,inactive: 0.095,inactive: 0.092,inactive: 0.015,inactive: -0.046,inactive: 0.282,inactive: 0.451,inactive: -0.193
FUBP3 (UniProt Q96I24),inactive: -0.023,inactive: 0.024,inactive: -0.048,inactive: -0.011,inactive: 0.003,inactive: 0.062,inactive: -0.005,inactive: 0.045,inactive: 0.186,inactive: 0.006
GABPA (UniProt Q06546),inactive: -0.05,inactive: -0.057,inactive: -0.203,inactive: -0.042,inactive: 0.108,inactive: 0.138,inactive: 0.139,inactive: -0.007,inactive: -0.13,inactive: 0.008
GALNT4 (UniProt Q8N4A0),inactive: -0.013,inactive: -0.117,inactive: -0.072,active: -1.32,inactive: -0.064,inactive: 0.055,inactive: 0.009,inactive: 0.003,inactive: 0.051,inactive: -0.064
GGCT (UniProt O75223),inactive: -0.047,inactive: -0.049,inactive: -0.045,inactive: 0.01,inactive: -0.018,inactive: 0.004,inactive: -0.014,inactive: -0.016,inactive: -0.124,inactive: 0.294
GALNT12 (UniProt Q8IXK2),inactive: 0.026,inactive: -0.127,inactive: -0.133,inactive: 0.044,inactive: 0.021,inactive: -0.023,inactive: -0.111,inactive: -0.007,inactive: -0.101,inactive: -0.134
GFER (UniProt P55789),inactive: -0.004,inactive: 0.057,inactive: 0.001,inactive: -0.03,inactive: -0.027,inactive: 0.02,inactive: 0.025,inactive: 0.019,inactive: -0.155,inactive: -0.075
FUBP1 isoform 2 (UniProt Q96AE4),inactive: -0.021,inactive: 0.007,inactive: 0.034,inactive: 0,inactive: -0.031,inactive: -0.029,inactive: -0.026,inactive: -0.01,inactive: -0.029,inactive: 0.011
GHITM (UniProt Q9H3K2),inactive: 0.013,inactive: -0.034,inactive: -0.06,inactive: 0.026,inactive: -0.001,inactive: 0.011,inactive: 0.039,inactive: 0.011,inactive: 0.004,inactive: -0.025
GALM (UniProt Q96C23),inactive: 0.012,inactive: -0.005,inactive: 0.075,inactive: 0.005,inactive: -0.005,inactive: -0.009,inactive: 0.039,inactive: -0.036,inactive: -0.056,inactive: 0
GALNS (UniProt P34059),inactive: 0.17,inactive: -0.008,inactive: 0.08,inactive: 0.03,inactive: 0.051,inactive: 0.006,inactive: -0.132,inactive: -0.018,inactive: -0.033,inactive: -0.016
GAA (UniProt P10253),inactive: 0.216,inactive: -0.234,inactive: 0.13,inactive: -0.076,inactive: 0.116,inactive: 0.017,inactive: -0.06,inactive: 0.104,inactive: -0.048,inactive: -0.072
FRRS1 (UniProt Q6ZNA5),inactive: -0.008,inactive: -0.03,inactive: 0.004,inactive: 0.015,inactive: 0.008,inactive: 0.028,inactive: 0.047,inactive: -0.017,inactive: 0.057,inactive: -0.12
GATD1 (UniProt Q8NB37),inactive: 0.012,inactive: 0.028,inactive: -0.037,inactive: -0.013,inactive: -0.084,inactive: -0.018,inactive: -0.031,inactive: -0.025,active: -0.673,inactive: -0.031
GBF1 (UniProt Q92538),inactive: -0.026,inactive: -0.012,inactive: -0.122,inactive: -0.058,inactive: 0.053,inactive: 0.144,inactive: 0.124,inactive: -0.018,inactive: -0.001,inactive: -0.023
FOXO3 (UniProt O43524),inactive: -0.395,inactive: -0.089,inactive: -0.025,inactive: -0.072,inactive: -0.063,inactive: 0.222,inactive: 0.002,inactive: -0.136,inactive: -0.046,inactive: 0.035
FXR2 (UniProt P51116),inactive: -0.115,inactive: 0.034,inactive: 0.298,inactive: 0.077,inactive: -0.041,inactive: 0.013,inactive: -0.02,inactive: 0.233,inactive: 0.287,inactive: -0.048
GADD45GIP1 (UniProt Q8TAE8),inactive: -0.007,inactive: 0.031,inactive: 0.051,inactive: 0.077,inactive: 0.054,inactive: -0.002,inactive: -0.025,inactive: -0.012,inactive: 0.042,inactive: -0.063
FTL (UniProt P02792),inactive: 0.109,inactive: -0.11,inactive: 0.036,inactive: 0.011,inactive: -0.02,inactive: 0,inactive: 0.14,inactive: 0.069,inactive: 0.033,inactive: -0.096

# 8 entries from above, set out differently:
Target | log2 fold change [1] | log2 fold change [2] | log2 fold change [3] | log2 fold change [4] | log2 fold change (entinostat) | log2 fold change (vorinostat) | log2 fold change (citarinostat) | log2 fold change (silmitasertib) | log2 fold change [5] | log2 fold change [6]
FRA10AC1 isoform 3 (UniProt Q70Z53) | inactive: -0.069 | inactive: 0.114 | inactive: -0.121 | inactive: -0.077 | inactive: 0.019 | inactive: 0.065 | inactive: 0.08 | inactive: 0.129 | inactive: -0.091 | inactive: -0.232
FURIN (UniProt P09958) | inactive: 0.039 | inactive: -0.02 | inactive: -0.103 | inactive: 0.14 | inactive: -0.026 | inactive: 0.001 | inactive: 0.104 | inactive: -0.018 | inactive: -0.074 | inactive: -0.036
FUBP3 (UniProt Q96I24) | inactive: -0.023 | inactive: 0.024 | inactive: -0.048 | inactive: -0.011 | inactive: 0.003 | inactive: 0.062 | inactive: -0.005 | inactive: 0.045 | inactive: 0.186 | inactive: 0.006
GABPA (UniProt Q06546) | inactive: -0.05 | inactive: -0.057 | inactive: -0.203 | inactive: -0.042 | inactive: 0.108 | inactive: 0.138 | inactive: 0.139 | inactive: -0.007 | inactive: -0.13 | inactive: 0.008
GALNT12 (UniProt Q8IXK2) | inactive: 0.026 | inactive: -0.127 | inactive: -0.133 | inactive: 0.044 | inactive: 0.021 | inactive: -0.023 | inactive: -0.111 | inactive: -0.007 | inactive: -0.101 | inactive: -0.134
GFER (UniProt P55789) | inactive: -0.004 | inactive: 0.057 | inactive: 0.001 | inactive: -0.03 | inactive: -0.027 | inactive: 0.02 | inactive: 0.025 | inactive: 0.019 | inactive: -0.155 | inactive: -0.075
GALNS (UniProt P34059) | inactive: 0.17 | inactive: -0.008 | inactive: 0.08 | inactive: 0.03 | inactive: 0.051 | inactive: 0.006 | inactive: -0.132 | inactive: -0.018 | inactive: -0.033 | inactive: -0.016
GATD1 (UniProt Q8NB37) | inactive: 0.012 | inactive: 0.028 | inactive: -0.037 | inactive: -0.013 | inactive: -0.084 | inactive: -0.018 | inactive: -0.031 | inactive: -0.025 | active: -0.673 | inactive: -0.031
